Measurements reported in PubChem BioAssay AID652243 (Drosophila RNAi Screening Center, 2013)
The screen tested about 24,000 reagents; shown is an unselected part of those that have a named target and a result. In the full data, 246 (1%) are marked active. 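Plates not normalised; calls are printed but the firefly/Renilla ratio behind them is not deposited; fold cut for lowering reported inconsistently.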 Raw values are not corrected between plates. Entries without a mark were called inactive. The numbers tell different reagents against one gene apart. Names joined by + are all predicted targets of the reagent. No sequences are given here. The record does not give: the amount of reagent.

Screen: 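Fly regulators of androgen-dependent reporter output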 (primary screen)
Cells: Drosophila S2R+ cells
Knock-down reagent: long dsRNA against Drosophila genes
Duration: 72 h (48 h, then 24 h hormone)
Treatment: synthetic androgen R1881 at 10 nM for 24 h
Measurement: 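Per-well raw luminescence of the androgen-driven firefly reporter and of the Renilla control, two replicates each, without normalisation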
Scale: firefly reporter light: higher = more light from androgen-responsive reporter; Renilla control light: higher = more constitutive control signal (cell number, transfection)
Rule for the call: 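Across duplicate plates, a knock-down whose log firefly/Renilla ratio shifted a set fold down or up from the GFP/LacZ control mean was a hit; the downward cut appears as both 1.5 and 3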
Calls: active = hit: reporter lowered or raised; inactive = no hit

gene | reagent | firefly reporter light, replicate 1 | firefly reporter light, replicate 2 | Renilla control light, replicate 1 | Renilla control light, replicate 2
CG13807 | 1 | 75261 | 1.03e5 | 9.89e5 | 1.00e6
CG13807 | 2 | 3.90e5 | 4.37e5 | 6.92e5 | 8.48e5
CG12708 | 1 | 2.91e5 | 3.19e5 | 3.07e6 | 3.73e6
CG17475 | 1 | 1.72e5 | 1.27e5 | 1.64e6 | 1.87e6
CG17475 | 2 | 6.13e5 | 4.59e5 | 6.61e5 | 7.48e5
Ccp84Aa | 1 | 1.79e5 | 1.30e5 | 3.61e6 | 2.38e6
Ccp84Aa | 2 | 6.39e5 | 6.22e5 | 9.41e5 | 8.73e5
CG14357 | 1 | 78555 | 1.48e5 | 1.97e6 | 2.07e6
CG14357 | 2 | 4.43e5 | 4.22e5 | 2.02e6 | 2.01e6

Sorted by “firefly reporter light, replicate 2” (highest first): 2 of the entries above.
gene | reagent | firefly reporter light, replicate 1 | firefly reporter light, replicate 2 | Renilla control light, replicate 1 | Renilla control light, replicate 2
CG13807 | 2 | 3.90e5 | 4.37e5 | 6.92e5 | 8.48e5
CG13807 | 1 | 75261 | 1.03e5 | 9.89e5 | 1.00e6

Further entries follow.
gene | reagent | firefly reporter light, replicate 1 | firefly reporter light, replicate 2 | Renilla control light, replicate 1 | Renilla control light, replicate 2
CG1979 | 1 | 50488 | 63013 | 3.45e5 | 4.00e5
CG1979 | 2 | 8.04e5 | 5.83e5 | 6.62e5 | 6.59e5
Paf-AHalpha (Platelet-activating factor acetylhydrolase alpha) | 1 | 6.25e5 | 6.19e5 | 4.25e6 | 2.43e6
Mtpalpha (Mitochondrial trifunctional protein alpha subunit) | 1 | 7.23e5 | 7.10e5 | 1.27e6 | 1.95e6
CAH3 (Carbonic anhydrase 3) | 1 | 1.67e5 | 2.92e5 | 2.29e6 | 3.23e6
eRF3 (eukaryotic translation release factor 3) | 1 | 3.08e5 | 2.61e5 | 1.19e6 | 2.03e6
CG11638 | 1 | 2.85e5 | 2.93e5 | 5.00e6 | 3.37e6
CG11638 | 2 | 2.54e5 | 3.49e5 | 2.04e6 | 1.34e6
Crtp (Caldesmon-related protein) | 1 | 3.48e5 | 4.09e5 | 2.41e6 | 2.22e6
Crtp (Caldesmon-related protein) | 2 | 3.59e5 | 3.00e5 | 6.68e5 | 3.74e5
CG34355 | 1 | 3.71e5 | 3.03e5 | 3.16e6 | 2.27e6
CG34355 | 2 | 2.17e5 | 2.35e5 | 2.96e6 | 2.59e6
CG34355 | 3 | 2.14e5 | 2.11e5 | 2.09e6 | 2.72e6
CG34355 | 4 | 5.65e5 | 5.81e5 | 2.28e6 | 2.70e6
sotv + CG10731 | 1 | 87034 | 1.11e5 | 1.71e6 | 1.71e6
sotv + CG10731 | 2 | 74258 | 1.21e5 | 1.31e6 | 1.31e6
